Experimental data: PubChem BioAssay AID1224830 (NIAID, 2016)

Screen: 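Regulators of TLR4 signalling towards TNF-alpha in macrophage-like cells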 (primary screen)
Cell system: human THP-1 monocytic leukaemia cells, TNF dual-luciferase reporter clone, PMA-differentiated to macrophage-like cells
Knock-down reagent: siRNA pool against human genes, 50 nM
Time to read-out: LPS for 4 h, given about 3 days after siRNA transfection
Conditions: bacterial LPS (TLR4 ligand), 10 ng/ml
Detection: 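TNF firefly reporter luminescence divided by renilla, normalised to the plate median, then turned into a robust z-score for each replicate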
Direction: TNF reporter robust z-score: higher = stronger TNF reporter response to LPS
Hit rule: 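Each well counts as active if its z-score is over 2.8 or under -1.5; controls are left without a call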
This is a random part of about 18,000 reagents. About 2,900 of all reagents (16%) count as active. 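Calls are made per well; low scores hint the gene aids the LPS response, high scores that it dampens it.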 A number with no mark means an inactive call. Repeated entries: four replicate wells of each siRNA pool.

The first 3 records, to show the layout:
Gene | TNF reporter robust z-score
CDK17 | 1.1
CDK17 | 0.7
CDK17 | 1.31

Results, repeating the preview:
Gene | TNF reporter robust z-score
CDK17 | 1.1
CDK17 | 0.7
CDK17 | 1.31
CDK17 | 2.93 (active)
FAM217A | -0.23
FAM217A | -0.47
FAM217A | -0.37
FAM217A | 0.88
FAM162A | 0.11
FAM162A | 0.76
FAM162A | 1.06
FAM162A | 1.53
SPATA25 | -0.28
SPATA25 | -0.41
SPATA25 | -1.07
SPATA25 | -0.76
ACOX2 | 1.88
ACOX2 | 1.92
ACOX2 | 2.25
ACOX2 | 2.35
MAGEC1 | 0.07
MAGEC1 | -0.4
MAGEC1 | -0.08
MAGEC1 | 0.02
MAX | -0.96
MAX | -1.28
MAX | -1.43
MAX | -0.15
LRRC61 | -0.44
LRRC61 | 0.86
LRRC61 | -0.76
LRRC61 | -0.6
RTP4 | -0.76
RTP4 | -0.14
RTP4 | 0.37
RTP4 | 0.99
AHCYL2 | -0.54
AHCYL2 | -0.06
AHCYL2 | 0.04
AHCYL2 | -0.92
KIAA1191 | -0.59
KIAA1191 | 0.47
KIAA1191 | 0.42
KIAA1191 | 0.39
LCN6 | 0.95
LCN6 | 2.37
LCN6 | 2.47
LCN6 | 2.33
